Source: the supplement of paper PMC10949913

Experiments:
CU-ACC1 [1] = assay: area under concentration-response curve (viability) (AUC (a.u.)); higher = less active; settings: 48 h
How it was run: (§1)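 Library compounds were dispensed at 11 concentrations (23 nL each) onto three adrenocortical carcinoma cell lines in 1,536-well plates. Luminescence was recorded after 48 h using CellTiter-Glo, and signals were normalised per plate to vehicle and empty-well controls. Fitted concentration-response curves of inhibitory or non-responding classes only supplied the AC50 and area under the curve.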

NCI-H295R [2] = assay: as above; settings: 48 h
How it was run: as §1

CU-ACC2 [3] = assay: as above; settings: 48 h
How it was run: as §1

CU-ACC1 [4] = assay: AC50 viability; higher = less potent; settings: 48 h
How it was run: as §1

NCI-H295R [5] = assay: AC50 viability; higher = less potent; settings: 48 h
How it was run: as §1

CU-ACC2 [6] = assay: AC50 viability; higher = less potent; settings: 48 h
How it was run: as §1

CU-ACC1 [7] = assay: ExcessHSA synergy score with TAK-243; higher = less synergy (negative = synergistic); settings: combined with: TAK-243 (MLN-7243) matrix, 9-point 1:2 dilution
Procedure: (§2)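 Each drug was tested at 9 points with 1:2 dilution; viability was read by CellTiter-Glo as in the single-agent screen. Synergy is scored as ExcessHSA (sum of excess over highest single agent; negative = synergy) and the Beta interaction parameter (<1 synergy).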

NCI-H295R [8] = assay: as above; settings: combined with: TAK-243 (MLN-7243) matrix, 9-point 1:2 dilution
Procedure: as §2

| SMILES | area under concentration-response curve (CU-ACC1 [1]) | area under concentration-response curve (NCI-H295R [2]) | area under concentration-response curve (CU-ACC2 [3]) | AC50 viability (CU-ACC1 [4]) [µM] | AC50 viability (NCI-H295R [5]) [µM] | AC50 viability (CU-ACC2 [6]) [µM] | ExcessHSA synergy score with TAK-243 (CU-ACC1 [7]) | ExcessHSA synergy score with TAK-243 (NCI-H295R [8]) |
| --- | --- | --- | --- | --- | --- | --- | --- | --- |
| COc1cc(N2CCN(C(C)=O)CC2)ccc1Nc1ncc(Cl)c(Nc2ccc(N3CCN(C(C)=O)CC3)cc2OC)n1 | 268 | 272 | 277 | 9.34 | 8.33 | 11.8 | – | – |
| COC(=O)[C@H](CCCNC(=N)N)N[S+](=O)([O-])c1ccc(C)cc1 | 569 | – | 626 | – | – | – | – | – |
| Cc1nc2c(-c3cnc(N)nc3)nc(N3CCOCC3)nc2n1C(C)C | 352 | 353 | 292 | – | – | – | – | – |
| C[C@@H]1C[C@H](N)C[C@H](c2ccncc2NC(=O)c2ccc(F)c(-c3c(F)cccc3F)n2)C1 | 453 | 488 | – | 23.5 | 23.5 | – | – | – |
| CC1=C(C=CC=C1)N2C(=O)C3=C(C=CC=C3C)\N=C2\C[N]4N=C(C5=CC(=CC=C5)O)C6=C(N)N=CN=C46 | 543 | 584 | – | – | – | – | – | – |
| COC(=O)[C@H](CCCN=C(N)N)NS(=O)(=O)c1ccc(C)cc1 [TAME] | – | – | – | – | – | – | -262 | -279 |
